One molecule from article PMC3419649 can be followed below.

Sequences of proteins named here, by UniProt entry; tags and fusion partners are left off.
UniProt Q63690: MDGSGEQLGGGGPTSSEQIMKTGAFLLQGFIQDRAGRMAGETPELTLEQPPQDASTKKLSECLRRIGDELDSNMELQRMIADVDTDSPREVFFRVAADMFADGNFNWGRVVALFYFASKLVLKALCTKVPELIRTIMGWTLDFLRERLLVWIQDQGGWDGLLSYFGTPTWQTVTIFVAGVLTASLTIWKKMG
UniProt P49950: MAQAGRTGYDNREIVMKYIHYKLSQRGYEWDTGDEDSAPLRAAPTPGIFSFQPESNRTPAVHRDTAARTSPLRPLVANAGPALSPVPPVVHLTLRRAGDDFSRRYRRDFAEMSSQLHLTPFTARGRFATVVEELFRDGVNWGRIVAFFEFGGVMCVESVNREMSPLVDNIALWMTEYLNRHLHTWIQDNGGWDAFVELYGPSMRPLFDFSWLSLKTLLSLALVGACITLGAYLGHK

Results are given in words; binding and its absence hold for the method and conditions named. Binding seen in cells or lysates may run through a third protein. Some entries that bind do so weakly or less than the wild type.

Experiment [1] deals with Bax (rat (endogenous in PC12)) (UniProt Q63690). Nature of the experiment: co-IP; endogenous proteins in PC12 protein extracts (M-PER) taken 0, 2, 4 and 8 hrs after 30 nM H2O2; Diva, Bcl2 or Bax antibody overnight at 4°C, Protein G Plus/Protein A agarose, 5 washes (10 mM Tris pH 7.4, 150 mM NaCl, 1% Triton X-100, EDTA, EGTA); western blot. On the technique in general: A western blot detects proteins with antibodies after separation by electrophoresis.

For experiment [2], the target named is Bcl2 (rat (endogenous in PC12)) (UniProt P49950). The description is as above.

B1: Diva (protein, UniProt Q99M66 1-185)
chain: MGDPLQDRTRRLLTDYILFCARAPNTPEPLPTSVEAALLRSVTSQIQQEHQDLFNSFRDYQGNRLELVTQMADELLSNDQEFNWGRLVMLLAFVGTLMNQDRTVKRRRDQRNRLLLERDCYLIVSLLYNRLTGRHRSWLEAHGGWDGFCQFFKNPLPPGFWRRLLIRAILSCFFATAIFYIWKCL
Turning to B1, the binding result in experiment [1] and in experiment [2] was “binds” in each case.
